The assay has as its target TAP-tagged Lid1 (Apc4), subunit of the APC/C (S. pombe) (UniProt O42839). The assay is described as follows: affinity purification with mass spectrometry; large scale Lid1/Apc4 pull-down on IgG-Dynabeads from lysates of cycling and mitotically arrested (nda3, 18°C) cells, glycine elution, MudPIT.

Chains of the proteins cited; added tags and fusions are not shown.
UniProt O42839: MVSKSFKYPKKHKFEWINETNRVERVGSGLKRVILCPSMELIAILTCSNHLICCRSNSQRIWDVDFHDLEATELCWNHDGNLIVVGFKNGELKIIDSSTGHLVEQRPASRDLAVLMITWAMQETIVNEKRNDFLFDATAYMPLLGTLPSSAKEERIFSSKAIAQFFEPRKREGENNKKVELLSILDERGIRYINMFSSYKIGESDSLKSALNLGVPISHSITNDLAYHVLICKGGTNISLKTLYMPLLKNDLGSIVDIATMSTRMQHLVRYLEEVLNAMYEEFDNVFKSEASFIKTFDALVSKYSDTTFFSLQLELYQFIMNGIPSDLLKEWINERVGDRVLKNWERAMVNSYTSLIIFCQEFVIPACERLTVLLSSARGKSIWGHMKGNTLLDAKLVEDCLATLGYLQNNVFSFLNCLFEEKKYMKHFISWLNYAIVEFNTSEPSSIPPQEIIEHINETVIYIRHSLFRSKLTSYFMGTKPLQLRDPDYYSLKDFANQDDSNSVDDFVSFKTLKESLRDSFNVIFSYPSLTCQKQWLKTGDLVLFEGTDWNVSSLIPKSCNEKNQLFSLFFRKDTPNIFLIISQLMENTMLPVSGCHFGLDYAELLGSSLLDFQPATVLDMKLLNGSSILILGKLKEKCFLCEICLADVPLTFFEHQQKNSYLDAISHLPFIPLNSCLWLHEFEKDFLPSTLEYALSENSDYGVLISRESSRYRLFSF
UniProt O59767: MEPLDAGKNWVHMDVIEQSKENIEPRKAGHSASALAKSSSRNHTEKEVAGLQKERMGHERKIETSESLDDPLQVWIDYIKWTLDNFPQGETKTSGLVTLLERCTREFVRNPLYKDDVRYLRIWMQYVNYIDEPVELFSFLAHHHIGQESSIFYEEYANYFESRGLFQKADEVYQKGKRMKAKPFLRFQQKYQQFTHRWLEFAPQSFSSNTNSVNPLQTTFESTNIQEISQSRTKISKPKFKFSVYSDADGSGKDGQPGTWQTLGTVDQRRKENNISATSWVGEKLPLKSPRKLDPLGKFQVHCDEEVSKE

No constants are given. Whether binding was seen depends on the method and setting. Binding seen in cells or lysates may run through a third protein. A yes stands for co-enrichment or nearness to the bait. Other partners may have been found.

For the substance “Mad3p found in Apc4-TAP purifications (from UniProt O59767 1-310)”, the binding entry is “binds”.

The values above are taken from publication PMC4755545.
